Measured values reported in publication PMC10747034 (Tropical Medicine and Infectious Disease, 2023).

Assay: Cytotoxicity assay (MTS, 7 days)
Type: cell-based
Conditions: human, concentrations up to 10 µM, two independent experiments, read-out: Cytotoxicity against NHDF (7 Days) CC50
Experimental: For that, 96-well tissue plates containing NHDF cells were treated with different concentrations of compounds up to 10 µM for seven days. Control cells were incubated with 0.5% DMSO. At the end of the treatment, cell viability was then analyzed through the colorimetric method of MTS (Promega, Madison, WI, USA). […] Data were analyzed using GraphPad Prim 8.0 software. IC50 and CC50 calculations were performed by fitting the values of proliferation/viability in percentage to a non-linear curve followed by dose–response inhibition analysis through log(inhibitor) vs. normalized response.

SMILES: CCC[C@@H]1C[C@@H](C(=O)N[C@@H]([C@H]2O[C@H](SC)[C@H](O)[C@@H](O)[C@H]2O)[C@H](C)Cl)N(C)C1 [Clindamycin]
- CC50 at 7 days: 8.84 µM
